Among the data in article PMC4881018, “Sec15 links bud site selection to polarised cell growth and exocytosis in Candida albicans” (Scientific Reports, 2016) are binding values, retold here.

For one assay, the target named is Myo2-Myc (C. albicans) (UniProt Q5AKW2). As to the kind of experiment: co-IP; C. albicans cell lysates in HEPES lysis buffer (50 mM Hepes pH 7.5, 1 mM EDTA, 5% glycerol, 0.05% Tween 20, 105 mM KCl); antibody-conjugated beads (anti-GFP, anti-Myc or anti-HA), 4 °C for 2 h; western blot. In general terms: Immunoblotting shows a protein as a band on a membrane.
A further assay concerns the target Sec15-GFP (C. albicans). Described as above.

No constants are given. Whether binding was seen depends on the method and setting. Binding seen in cells or lysates may run through a third protein. Some results given as binding are weak or reduced against the parent protein; the word gives no strength.

As to “Sec15-GFP (from UniProt A0A1D8PM29 1-892)”, in the assay with Myo2-Myc (C. albicans), the binding entry was “binds”. In the case of Myo2-Myc (from UniProt Q5AKW2 1-1561), the binding result with Sec15-GFP (C. albicans) was “binds”.
